In the supplement of paper PMC10849652:
The other results are listed elsewhere or left out.

Sequences of proteins named here, by UniProt entry; tags and fusion partners are left off. A change or cut given only in a name is not applied to a line headed by its entry.
UniProt Q9P0W2: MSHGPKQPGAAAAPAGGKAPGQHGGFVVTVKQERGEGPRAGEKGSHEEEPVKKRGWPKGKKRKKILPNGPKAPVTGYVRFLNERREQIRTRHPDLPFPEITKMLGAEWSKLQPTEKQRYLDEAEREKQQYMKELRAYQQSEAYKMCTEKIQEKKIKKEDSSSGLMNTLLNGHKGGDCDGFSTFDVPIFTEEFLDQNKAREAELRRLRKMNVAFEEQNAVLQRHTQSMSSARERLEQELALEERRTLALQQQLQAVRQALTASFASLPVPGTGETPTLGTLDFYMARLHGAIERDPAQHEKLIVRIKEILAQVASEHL
UniProt Q7LGA3: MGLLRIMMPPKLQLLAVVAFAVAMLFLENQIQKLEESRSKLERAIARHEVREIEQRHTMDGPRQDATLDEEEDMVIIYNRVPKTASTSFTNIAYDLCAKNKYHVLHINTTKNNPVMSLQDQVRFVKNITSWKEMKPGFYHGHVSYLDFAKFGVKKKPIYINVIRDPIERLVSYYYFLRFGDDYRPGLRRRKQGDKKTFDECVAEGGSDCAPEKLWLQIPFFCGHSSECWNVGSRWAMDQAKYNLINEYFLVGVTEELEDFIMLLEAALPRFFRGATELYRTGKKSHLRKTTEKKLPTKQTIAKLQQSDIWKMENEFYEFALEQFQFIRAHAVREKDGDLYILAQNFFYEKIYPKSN
UniProt P26583: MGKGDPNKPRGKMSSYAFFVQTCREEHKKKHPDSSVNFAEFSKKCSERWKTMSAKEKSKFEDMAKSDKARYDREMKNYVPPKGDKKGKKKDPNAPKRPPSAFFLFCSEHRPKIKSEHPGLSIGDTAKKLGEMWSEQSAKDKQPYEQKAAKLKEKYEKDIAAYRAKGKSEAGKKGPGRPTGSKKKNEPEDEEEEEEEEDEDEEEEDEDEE
UniProt Q9BQS7: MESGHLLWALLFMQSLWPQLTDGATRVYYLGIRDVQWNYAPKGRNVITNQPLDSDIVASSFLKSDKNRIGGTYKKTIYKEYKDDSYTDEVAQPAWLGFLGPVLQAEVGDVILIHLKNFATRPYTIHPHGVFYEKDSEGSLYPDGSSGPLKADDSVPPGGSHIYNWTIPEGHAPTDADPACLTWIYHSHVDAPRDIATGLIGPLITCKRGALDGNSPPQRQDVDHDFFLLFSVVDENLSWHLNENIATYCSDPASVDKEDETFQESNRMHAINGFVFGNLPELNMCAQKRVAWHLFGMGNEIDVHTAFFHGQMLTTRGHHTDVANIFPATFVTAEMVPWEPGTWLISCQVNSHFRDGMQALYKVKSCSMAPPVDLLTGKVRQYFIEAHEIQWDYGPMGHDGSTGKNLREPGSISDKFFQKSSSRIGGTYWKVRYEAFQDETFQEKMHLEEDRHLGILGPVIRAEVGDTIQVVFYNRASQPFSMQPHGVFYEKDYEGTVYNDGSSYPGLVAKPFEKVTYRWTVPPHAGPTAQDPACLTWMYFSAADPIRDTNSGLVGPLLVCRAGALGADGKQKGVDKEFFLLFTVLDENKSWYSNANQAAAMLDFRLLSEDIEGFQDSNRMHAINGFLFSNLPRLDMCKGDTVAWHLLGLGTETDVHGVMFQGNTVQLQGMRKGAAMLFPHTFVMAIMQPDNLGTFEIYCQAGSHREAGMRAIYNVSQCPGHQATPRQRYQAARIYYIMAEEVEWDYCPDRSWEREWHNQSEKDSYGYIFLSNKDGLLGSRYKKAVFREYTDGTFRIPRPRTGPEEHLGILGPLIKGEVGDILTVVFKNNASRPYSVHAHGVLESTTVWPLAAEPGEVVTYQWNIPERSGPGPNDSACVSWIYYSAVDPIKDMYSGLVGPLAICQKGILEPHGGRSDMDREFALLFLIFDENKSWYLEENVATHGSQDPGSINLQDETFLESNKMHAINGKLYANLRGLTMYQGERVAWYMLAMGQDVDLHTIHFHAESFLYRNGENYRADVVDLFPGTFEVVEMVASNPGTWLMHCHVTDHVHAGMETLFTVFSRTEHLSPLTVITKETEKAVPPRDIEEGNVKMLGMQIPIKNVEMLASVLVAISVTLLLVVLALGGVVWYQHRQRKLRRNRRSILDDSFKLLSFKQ
UniProt Q14103: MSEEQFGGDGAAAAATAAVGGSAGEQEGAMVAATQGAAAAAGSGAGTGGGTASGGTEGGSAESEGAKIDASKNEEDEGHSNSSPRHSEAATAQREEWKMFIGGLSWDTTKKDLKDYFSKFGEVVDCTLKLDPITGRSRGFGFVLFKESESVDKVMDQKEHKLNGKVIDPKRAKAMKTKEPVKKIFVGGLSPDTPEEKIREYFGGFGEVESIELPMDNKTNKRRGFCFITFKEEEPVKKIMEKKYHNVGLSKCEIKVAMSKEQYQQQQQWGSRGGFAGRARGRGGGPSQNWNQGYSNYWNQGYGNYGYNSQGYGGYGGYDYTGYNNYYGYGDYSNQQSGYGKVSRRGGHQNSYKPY
UniProt P22626: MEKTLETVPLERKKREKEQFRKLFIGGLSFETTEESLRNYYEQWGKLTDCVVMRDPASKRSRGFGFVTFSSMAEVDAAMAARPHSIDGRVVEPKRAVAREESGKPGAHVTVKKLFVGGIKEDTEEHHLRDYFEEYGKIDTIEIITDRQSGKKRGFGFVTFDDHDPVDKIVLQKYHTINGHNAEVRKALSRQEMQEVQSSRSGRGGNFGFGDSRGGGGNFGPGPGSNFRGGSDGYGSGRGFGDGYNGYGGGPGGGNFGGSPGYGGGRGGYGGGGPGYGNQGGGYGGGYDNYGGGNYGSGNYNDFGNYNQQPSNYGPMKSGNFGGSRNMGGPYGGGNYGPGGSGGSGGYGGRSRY
UniProt P50747: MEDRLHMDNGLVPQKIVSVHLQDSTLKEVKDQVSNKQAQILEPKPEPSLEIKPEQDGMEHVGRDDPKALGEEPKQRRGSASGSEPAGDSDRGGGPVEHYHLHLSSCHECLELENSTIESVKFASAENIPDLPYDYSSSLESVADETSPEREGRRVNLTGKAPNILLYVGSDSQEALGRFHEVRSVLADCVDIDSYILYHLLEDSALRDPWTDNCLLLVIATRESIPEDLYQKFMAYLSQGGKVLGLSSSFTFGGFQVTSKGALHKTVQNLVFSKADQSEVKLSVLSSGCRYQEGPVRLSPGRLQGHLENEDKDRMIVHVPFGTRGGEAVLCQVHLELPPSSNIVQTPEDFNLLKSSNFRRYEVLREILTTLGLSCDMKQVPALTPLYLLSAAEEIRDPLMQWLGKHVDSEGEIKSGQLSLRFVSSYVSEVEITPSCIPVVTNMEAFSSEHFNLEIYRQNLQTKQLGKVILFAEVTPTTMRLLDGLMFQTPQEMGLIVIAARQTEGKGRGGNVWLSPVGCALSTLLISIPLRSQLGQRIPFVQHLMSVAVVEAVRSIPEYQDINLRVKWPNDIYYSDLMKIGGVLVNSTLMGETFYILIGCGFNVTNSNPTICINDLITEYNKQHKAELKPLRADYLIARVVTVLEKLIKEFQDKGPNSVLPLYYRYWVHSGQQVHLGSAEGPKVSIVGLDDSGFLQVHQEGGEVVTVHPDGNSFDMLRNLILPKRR
UniProt Q6AI08: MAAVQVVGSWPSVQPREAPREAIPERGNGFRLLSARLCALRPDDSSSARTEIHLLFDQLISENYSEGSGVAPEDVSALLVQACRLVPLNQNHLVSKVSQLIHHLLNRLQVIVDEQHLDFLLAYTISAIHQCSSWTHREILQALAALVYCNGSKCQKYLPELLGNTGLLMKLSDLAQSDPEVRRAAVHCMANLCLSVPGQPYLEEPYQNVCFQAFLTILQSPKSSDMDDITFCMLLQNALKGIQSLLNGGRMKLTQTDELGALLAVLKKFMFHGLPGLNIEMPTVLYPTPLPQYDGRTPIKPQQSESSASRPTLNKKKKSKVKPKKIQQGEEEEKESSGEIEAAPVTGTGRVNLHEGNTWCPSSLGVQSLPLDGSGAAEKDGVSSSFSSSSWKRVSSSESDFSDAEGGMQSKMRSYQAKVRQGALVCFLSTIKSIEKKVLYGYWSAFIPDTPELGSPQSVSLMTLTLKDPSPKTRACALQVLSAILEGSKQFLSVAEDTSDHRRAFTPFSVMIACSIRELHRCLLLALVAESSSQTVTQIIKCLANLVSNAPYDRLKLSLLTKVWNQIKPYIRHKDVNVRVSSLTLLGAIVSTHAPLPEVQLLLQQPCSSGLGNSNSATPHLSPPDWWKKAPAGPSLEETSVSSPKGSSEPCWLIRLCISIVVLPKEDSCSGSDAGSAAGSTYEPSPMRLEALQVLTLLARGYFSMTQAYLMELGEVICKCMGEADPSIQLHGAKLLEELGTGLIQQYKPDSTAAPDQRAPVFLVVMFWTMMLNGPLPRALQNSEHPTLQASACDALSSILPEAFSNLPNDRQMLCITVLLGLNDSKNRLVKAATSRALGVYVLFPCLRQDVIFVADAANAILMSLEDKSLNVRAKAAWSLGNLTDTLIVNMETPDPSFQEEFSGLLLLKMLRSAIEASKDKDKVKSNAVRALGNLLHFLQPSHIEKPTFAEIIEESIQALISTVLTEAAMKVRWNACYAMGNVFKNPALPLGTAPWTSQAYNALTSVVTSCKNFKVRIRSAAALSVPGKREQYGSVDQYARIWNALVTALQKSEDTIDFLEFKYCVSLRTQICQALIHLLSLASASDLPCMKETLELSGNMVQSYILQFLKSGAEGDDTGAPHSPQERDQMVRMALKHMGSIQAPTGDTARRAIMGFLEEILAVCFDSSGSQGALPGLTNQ
UniProt O14979: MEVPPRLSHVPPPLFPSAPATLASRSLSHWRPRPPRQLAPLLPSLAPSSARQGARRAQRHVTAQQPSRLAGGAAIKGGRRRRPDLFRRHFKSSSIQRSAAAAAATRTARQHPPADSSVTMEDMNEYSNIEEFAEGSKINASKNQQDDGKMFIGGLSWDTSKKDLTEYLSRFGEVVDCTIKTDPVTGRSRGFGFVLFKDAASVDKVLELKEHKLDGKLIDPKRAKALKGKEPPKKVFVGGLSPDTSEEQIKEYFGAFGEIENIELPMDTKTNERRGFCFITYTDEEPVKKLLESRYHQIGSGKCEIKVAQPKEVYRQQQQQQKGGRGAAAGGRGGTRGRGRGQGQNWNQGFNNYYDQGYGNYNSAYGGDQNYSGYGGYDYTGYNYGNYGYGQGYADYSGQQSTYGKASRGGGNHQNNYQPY
UniProt O75146: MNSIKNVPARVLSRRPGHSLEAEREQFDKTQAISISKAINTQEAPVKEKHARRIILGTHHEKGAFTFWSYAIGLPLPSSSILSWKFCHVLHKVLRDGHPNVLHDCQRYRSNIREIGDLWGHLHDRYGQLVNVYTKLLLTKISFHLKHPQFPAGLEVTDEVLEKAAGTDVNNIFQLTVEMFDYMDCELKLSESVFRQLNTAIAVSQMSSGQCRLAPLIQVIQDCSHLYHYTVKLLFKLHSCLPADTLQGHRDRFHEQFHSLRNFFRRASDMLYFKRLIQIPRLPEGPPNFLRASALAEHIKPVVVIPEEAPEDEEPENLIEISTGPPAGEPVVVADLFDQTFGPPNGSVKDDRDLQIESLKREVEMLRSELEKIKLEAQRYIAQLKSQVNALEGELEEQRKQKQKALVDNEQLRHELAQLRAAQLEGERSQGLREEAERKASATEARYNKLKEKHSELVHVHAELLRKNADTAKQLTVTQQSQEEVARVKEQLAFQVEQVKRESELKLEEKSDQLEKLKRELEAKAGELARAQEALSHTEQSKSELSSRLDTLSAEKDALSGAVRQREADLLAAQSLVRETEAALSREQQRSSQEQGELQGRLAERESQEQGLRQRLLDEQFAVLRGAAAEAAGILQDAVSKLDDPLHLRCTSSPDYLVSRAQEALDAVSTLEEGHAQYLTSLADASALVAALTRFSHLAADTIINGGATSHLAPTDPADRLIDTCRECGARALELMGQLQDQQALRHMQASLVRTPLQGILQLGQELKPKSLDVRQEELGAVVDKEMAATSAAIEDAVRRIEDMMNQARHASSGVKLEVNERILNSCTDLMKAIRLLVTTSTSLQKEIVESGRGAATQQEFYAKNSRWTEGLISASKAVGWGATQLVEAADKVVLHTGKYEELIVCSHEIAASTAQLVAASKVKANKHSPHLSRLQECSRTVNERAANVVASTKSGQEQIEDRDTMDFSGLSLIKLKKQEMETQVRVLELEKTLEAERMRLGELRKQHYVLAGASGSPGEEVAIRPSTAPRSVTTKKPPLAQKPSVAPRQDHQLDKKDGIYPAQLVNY
UniProt Q6NT76: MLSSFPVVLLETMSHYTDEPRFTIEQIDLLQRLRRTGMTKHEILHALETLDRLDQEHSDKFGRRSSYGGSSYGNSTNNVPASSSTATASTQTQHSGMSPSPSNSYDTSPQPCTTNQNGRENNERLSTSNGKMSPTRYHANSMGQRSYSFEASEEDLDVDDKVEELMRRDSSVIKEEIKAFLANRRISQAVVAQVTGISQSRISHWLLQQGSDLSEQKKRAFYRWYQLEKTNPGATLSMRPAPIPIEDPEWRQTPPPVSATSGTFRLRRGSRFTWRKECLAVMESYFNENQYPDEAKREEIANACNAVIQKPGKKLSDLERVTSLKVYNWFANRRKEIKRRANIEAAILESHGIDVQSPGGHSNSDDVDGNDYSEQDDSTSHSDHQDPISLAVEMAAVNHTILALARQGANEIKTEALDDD

What was measured:
Experiment in all cases: log2 fold change, soluble protein after heating vs DMSO (PISA); higher = thermal stabilisation; K562 lysate, 10 uM; active = over 0.2 and 3.5 SD of the protein, either way, in both replicates (recomputed)
[1] = compound: C1=CC=C(C=C1)[C@H](COC2=CC3=C(C=C2)NC(=O)N3)NC(=O)C4=CC=CN(C4=O)CC5=CC(=C(C=C5)F)F
Method in brief: (§1)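 K562 pellets were dounce-homogenised in PBS pH 7.4 containing 1 mM MgCl2, and the crude extract, at 1 mg/mL protein, was exposed to 10 μM compound for 30 min. Aliquots were heated for 3 min across 48°C-58°C, pooled, brought to 0.5% NP-40 at 4°C and spun at 21,000xg for 90 min, with the supernatant taken as soluble protein. TMTpro 16plex LC-MS/MS with equalised channel sums quantified that protein. Values are log-two fold changes in thermal stability relative to solvent controls, taken from duplicates.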

[2] = compound: CC1=C(SC2=C1C(=N[C@H](C3=NN=C(N32)C)CC(=O)N)C4=CC=C(C=C4)Cl)C
Method in brief: as §1

[3] = compound: CC1=C2C(=CC=C1)N=C(N(C2=O)C3=CC=CC=C3C)CN4C=NC5=C(N=CN=C54)N
Method in brief: as §1

[4] = compound: Cc1sc2c(c1C)C(c1ccc(Cl)cc1)=N[C@@H](CC(=O)OC(C)(C)C)c1nnc(C)n1-2
Method in brief: as §1

[5] = compound: c1ccc([C@@H]2C[C@H]2NC2CCNCC2)cc1
Method in brief: as §1

Measured: log2 fold change

HMG20B (UniProt Q9P0W2)
inactive: [1] -0.014 | [2] 0.045 | [3] -0.068 | [4] -0.103 | [5] 0.177

HIBADH (UniProt P31937)
inactive: [1] 0.005 | [2] 0.07 | [3] 0.002 | [4] -0.033 | [5] 0

HS2ST1 (UniProt Q7LGA3)
inactive: [1] 0.066 | [2] -0.038 | [3] -0.007 | [4] 0.042 | [5] -0.015

HPS5 (UniProt Q9UPZ3)
inactive: [1] -0.059 | [2] 0.12 | [3] 0.102 | [4] 0.047 | [5] -0.125

HNRNPF (UniProt P52597)
inactive: [1] 0.072 | [2] -0.007 | [3] 0.012 | [4] 0.024 | [5] -0.022

HMGB3 (UniProt O15347)
inactive: [1] 0.053 | [2] 0.026 | [3] -0.052 | [4] 0.078 | [5] 0.004

HMGB2 (UniProt P26583)
inactive: [1] 0.022 | [2] -0.069 | [3] -0.03 | [4] 0.036 | [5] 0.161

HEPH isoform 3 (UniProt Q9BQS7)
inactive: [1] -0.06 | [2] 0.083 | [3] 0.022 | [4] 0.002 | [5] -0.037

HEXA (UniProt P06865)
inactive: [1] -0.006 | [2] 0.033 | [3] 0.025 | [4] 0.022 | [5] 0.001

HNRNPD isoform 2 (UniProt Q14103)
inactive: [1] 0.059 | [2] -0.015 | [3] -0.01 | [4] 0.018 | [5] 0.125

HEXB (UniProt P07686)
inactive: [1] 0.008 | [2] 0.023 | [3] 0.005 | [4] 0.025 | [5] 0.054

HPS4 isoform 4 (UniProt Q9NQG7)
inactive: [1] 0.011 | [2] 0.243 | [3] -0.053 | [4] 0.012

HSPA4 (UniProt P34932)
inactive: [1] 0.011 | [2] 0.013 | [3] 0.006 | [4] 0.012 | [5] -0.006

HSPA4L (UniProt O95757)
inactive: [1] 0 | [2] -0.008 | [3] 0.02 | [4] -0.02 | [5] -0.01

HNRNPA2B1 (UniProt P22626)
inactive: [1] -0.01 | [2] 0.016 | [3] -0.006 | [4] 0.013 | [5] -0.008

HNRNPD isoform 3 (UniProt Q14103)
inactive: [1] -0.087 | [2] -0.145 | [3] 0 | [4] -0.096 | [5] -0.003

HNRNPUL2 (UniProt Q1KMD3)
inactive: [1] 0.011 | [2] 0.016 | [3] 0.015 | [4] 0.007 | [5] 0.032

HS1BP3 (UniProt Q53T59)
inactive: [1] 0.018 | [2] -0.03 | [3] -0.073 | [4] 0.004 | [5] -0.053

HEXIM1 (UniProt O94992)
inactive: [1] -0.001 | [2] 0.001 | [3] -0.051 | [4] -0.052 | [5] -0.032

HLCS (UniProt P50747)
inactive: [1] -0.027 | [2] 0.027 | [3] 0.011 | [4] -0.006 | [5] 0.038

HEATR6 (UniProt Q6AI08)
inactive: [1] -0.039 | [2] -0.086 | [3] 0.05 | [4] 0.008 | [5] 0.014

HNRNPDL (UniProt O14979)
inactive: [1] 0.033 | [2] 0.002 | [3] 0 | [4] 0.048 | [5] -0.071

HERC2 (UniProt O95714)
inactive: [1] 0.005 | [2] -0.07 | [3] -0.011 | [4] 0.018 | [5] -0.037

HNRNPA3 (UniProt P51991)
inactive: [1] -0.027 | [2] 0.014 | [3] -0.021 | [4] 0.126 | [5] 0.068

HIP1R (UniProt O75146)
inactive: [1] -0.039 | [2] 0.008 | [3] 0 | [4] -0.011 | [5] 0.033

Copied from the results shown (eight entries):
HEXA (UniProt P06865)
inactive: [1] -0.006 | [2] 0.033 | [3] 0.025 | [4] 0.022 | [5] 0.001

HNRNPD isoform 2 (UniProt Q14103)
inactive: [1] 0.059 | [2] -0.015 | [3] -0.01 | [4] 0.018 | [5] 0.125

HEXB (UniProt P07686)
inactive: [1] 0.008 | [2] 0.023 | [3] 0.005 | [4] 0.025 | [5] 0.054

HPS4 isoform 4 (UniProt Q9NQG7)
inactive: [1] 0.011 | [2] 0.243 | [3] -0.053 | [4] 0.012

HSPA4 (UniProt P34932)
inactive: [1] 0.011 | [2] 0.013 | [3] 0.006 | [4] 0.012 | [5] -0.006

HSPA4L (UniProt O95757)
inactive: [1] 0 | [2] -0.008 | [3] 0.02 | [4] -0.02 | [5] -0.01

HNRNPA2B1 (UniProt P22626)
inactive: [1] -0.01 | [2] 0.016 | [3] -0.006 | [4] 0.013 | [5] -0.008

HNRNPD isoform 3 (UniProt Q14103)
inactive: [1] -0.087 | [2] -0.145 | [3] 0 | [4] -0.096 | [5] -0.003

Later entries:

HNRNPM (UniProt M0QZM1)
inactive: [1] -0.093 | [2] -0.092 | [3] -0.01 | [4] 0.152

HMBOX1 isoform 5 (UniProt Q6NT76)
inactive: [1] 0.016 | [2] -0.008 | [3] 0.055 | [4] 0.027 | [5] -0.114
